Measurements from the supplement of paper PMC12819154, “High-throughput peptide-centric local stability assay extends protein–ligand identification to membrane proteins, tissues and bacteria” (Nature Structural & Molecular Biology, 2025).
The other results are listed elsewhere or left out. Most values lie at the level of the controls, where differences are scatter.

Sequences of proteins named here, by UniProt entry; tags and fusion partners are left off. A change or cut given only in a name is not applied to a line headed by its entry.
UniProt Q9NRR6: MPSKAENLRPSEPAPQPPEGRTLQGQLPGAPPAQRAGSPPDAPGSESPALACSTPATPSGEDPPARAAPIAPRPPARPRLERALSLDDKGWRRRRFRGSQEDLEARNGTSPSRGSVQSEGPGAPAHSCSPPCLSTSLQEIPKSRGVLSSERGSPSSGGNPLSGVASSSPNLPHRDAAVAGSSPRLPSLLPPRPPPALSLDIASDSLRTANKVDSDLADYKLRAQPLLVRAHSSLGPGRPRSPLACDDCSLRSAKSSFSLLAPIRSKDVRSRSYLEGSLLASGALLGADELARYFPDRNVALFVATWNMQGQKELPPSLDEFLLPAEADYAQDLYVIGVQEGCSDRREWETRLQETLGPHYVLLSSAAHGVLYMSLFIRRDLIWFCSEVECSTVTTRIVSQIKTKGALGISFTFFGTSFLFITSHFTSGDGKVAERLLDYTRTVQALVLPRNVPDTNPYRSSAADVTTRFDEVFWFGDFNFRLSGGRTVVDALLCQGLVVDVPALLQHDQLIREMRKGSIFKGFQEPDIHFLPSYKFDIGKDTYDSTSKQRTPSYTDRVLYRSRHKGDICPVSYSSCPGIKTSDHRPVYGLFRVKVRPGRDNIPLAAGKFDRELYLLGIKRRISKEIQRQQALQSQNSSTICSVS
UniProt Q9NV79: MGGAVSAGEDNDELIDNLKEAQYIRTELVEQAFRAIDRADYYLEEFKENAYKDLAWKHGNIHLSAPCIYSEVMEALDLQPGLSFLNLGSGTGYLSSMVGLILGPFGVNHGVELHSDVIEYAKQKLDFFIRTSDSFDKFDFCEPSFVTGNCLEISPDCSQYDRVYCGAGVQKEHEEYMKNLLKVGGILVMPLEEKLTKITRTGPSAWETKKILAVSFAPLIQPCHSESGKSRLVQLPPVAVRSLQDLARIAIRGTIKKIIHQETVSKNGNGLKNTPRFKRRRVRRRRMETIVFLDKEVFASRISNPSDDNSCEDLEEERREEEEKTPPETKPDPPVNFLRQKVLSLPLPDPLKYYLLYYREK
UniProt Q9NX09: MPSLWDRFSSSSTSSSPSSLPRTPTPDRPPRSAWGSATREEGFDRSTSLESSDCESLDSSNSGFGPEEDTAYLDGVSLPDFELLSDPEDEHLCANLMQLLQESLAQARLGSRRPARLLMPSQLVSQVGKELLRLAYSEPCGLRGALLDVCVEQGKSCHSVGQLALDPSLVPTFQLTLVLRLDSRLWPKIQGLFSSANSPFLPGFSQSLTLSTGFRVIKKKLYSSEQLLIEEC
UniProt Q9NQI0, whole entry: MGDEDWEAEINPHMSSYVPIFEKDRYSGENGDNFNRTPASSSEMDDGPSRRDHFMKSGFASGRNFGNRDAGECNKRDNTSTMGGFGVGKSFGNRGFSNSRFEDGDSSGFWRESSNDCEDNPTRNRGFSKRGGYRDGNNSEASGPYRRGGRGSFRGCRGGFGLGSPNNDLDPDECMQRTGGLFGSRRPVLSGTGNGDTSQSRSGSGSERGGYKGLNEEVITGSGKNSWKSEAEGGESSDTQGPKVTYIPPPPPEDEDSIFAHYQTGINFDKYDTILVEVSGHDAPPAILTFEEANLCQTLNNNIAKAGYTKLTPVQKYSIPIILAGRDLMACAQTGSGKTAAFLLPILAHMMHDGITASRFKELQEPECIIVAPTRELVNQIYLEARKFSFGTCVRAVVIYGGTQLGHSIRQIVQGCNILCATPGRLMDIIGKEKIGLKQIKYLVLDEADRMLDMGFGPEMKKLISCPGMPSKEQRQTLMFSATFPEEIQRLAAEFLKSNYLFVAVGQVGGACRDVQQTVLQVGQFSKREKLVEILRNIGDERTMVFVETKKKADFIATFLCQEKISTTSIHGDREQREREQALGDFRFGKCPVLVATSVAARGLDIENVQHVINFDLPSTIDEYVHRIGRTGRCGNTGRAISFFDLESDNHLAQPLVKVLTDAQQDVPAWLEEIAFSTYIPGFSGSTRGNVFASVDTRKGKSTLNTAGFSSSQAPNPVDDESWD
UniProt Q9NRN7: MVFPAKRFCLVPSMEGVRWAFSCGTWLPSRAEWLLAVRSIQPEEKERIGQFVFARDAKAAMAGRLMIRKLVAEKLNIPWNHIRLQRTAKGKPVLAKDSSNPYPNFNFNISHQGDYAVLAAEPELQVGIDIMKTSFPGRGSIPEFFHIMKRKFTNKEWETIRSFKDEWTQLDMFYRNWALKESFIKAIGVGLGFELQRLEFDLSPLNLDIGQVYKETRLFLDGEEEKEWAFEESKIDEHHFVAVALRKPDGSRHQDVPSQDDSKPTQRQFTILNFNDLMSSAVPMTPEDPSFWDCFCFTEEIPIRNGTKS
UniProt Q9NW75: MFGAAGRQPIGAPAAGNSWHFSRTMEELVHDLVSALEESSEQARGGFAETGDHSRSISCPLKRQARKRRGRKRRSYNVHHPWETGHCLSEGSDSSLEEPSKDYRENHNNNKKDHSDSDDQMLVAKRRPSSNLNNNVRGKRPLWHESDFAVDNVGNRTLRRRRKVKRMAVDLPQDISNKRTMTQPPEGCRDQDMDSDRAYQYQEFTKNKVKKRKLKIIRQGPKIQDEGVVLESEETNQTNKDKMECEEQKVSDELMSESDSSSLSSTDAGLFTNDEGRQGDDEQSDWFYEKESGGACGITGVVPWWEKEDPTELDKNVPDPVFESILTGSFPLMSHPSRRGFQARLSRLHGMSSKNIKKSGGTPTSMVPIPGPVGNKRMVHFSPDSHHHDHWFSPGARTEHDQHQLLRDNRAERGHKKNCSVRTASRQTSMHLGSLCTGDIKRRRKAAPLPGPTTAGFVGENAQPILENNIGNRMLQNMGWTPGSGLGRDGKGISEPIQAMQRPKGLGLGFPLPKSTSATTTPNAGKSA
UniProt Q9NRX1: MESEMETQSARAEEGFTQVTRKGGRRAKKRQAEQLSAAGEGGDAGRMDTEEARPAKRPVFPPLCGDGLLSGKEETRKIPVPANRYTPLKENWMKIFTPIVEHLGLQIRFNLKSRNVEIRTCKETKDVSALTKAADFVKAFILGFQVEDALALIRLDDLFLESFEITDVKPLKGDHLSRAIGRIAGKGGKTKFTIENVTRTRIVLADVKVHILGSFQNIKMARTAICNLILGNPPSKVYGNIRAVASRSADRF
UniProt Q9NVG8: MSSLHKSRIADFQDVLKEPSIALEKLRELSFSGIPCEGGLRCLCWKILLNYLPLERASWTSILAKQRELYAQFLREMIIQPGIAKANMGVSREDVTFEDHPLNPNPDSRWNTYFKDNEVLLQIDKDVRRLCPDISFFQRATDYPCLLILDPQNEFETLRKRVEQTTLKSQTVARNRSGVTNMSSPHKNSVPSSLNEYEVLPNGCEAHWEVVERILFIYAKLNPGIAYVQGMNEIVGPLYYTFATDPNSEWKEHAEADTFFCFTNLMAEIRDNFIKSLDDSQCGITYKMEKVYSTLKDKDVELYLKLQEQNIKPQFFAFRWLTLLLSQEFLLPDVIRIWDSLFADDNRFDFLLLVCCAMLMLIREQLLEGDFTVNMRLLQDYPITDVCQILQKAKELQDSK
UniProt Q9NRM2: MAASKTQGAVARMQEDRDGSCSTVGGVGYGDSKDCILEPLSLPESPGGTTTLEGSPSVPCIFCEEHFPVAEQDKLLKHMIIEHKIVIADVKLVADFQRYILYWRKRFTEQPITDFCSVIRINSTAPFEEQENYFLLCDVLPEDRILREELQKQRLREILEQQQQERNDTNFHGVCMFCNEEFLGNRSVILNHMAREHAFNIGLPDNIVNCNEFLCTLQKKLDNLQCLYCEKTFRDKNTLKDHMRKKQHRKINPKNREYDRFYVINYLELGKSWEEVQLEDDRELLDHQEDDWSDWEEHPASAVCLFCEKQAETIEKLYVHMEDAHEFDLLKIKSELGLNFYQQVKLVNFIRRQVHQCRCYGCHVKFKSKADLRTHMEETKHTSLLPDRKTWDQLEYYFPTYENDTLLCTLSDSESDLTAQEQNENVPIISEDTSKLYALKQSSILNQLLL
UniProt Q9NYF3: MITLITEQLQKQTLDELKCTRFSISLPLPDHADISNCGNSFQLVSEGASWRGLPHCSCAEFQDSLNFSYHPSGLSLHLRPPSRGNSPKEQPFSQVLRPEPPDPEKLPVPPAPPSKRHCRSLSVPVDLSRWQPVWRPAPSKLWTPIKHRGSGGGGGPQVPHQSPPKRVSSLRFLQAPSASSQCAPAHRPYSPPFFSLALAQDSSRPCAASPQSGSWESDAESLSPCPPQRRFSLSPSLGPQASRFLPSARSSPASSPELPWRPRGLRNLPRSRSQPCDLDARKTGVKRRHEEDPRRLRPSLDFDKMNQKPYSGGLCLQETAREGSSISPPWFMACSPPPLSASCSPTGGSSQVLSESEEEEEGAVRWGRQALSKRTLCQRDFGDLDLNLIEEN
UniProt Q9NUM4, whole entry: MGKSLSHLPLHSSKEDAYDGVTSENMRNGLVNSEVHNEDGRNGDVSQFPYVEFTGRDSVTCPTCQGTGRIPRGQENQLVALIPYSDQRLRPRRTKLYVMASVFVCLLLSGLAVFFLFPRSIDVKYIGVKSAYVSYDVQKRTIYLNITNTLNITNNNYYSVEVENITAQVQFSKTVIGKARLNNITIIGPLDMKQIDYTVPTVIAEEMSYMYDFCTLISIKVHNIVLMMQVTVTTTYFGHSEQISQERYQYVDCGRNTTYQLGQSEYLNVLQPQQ
UniProt Q9NXK8: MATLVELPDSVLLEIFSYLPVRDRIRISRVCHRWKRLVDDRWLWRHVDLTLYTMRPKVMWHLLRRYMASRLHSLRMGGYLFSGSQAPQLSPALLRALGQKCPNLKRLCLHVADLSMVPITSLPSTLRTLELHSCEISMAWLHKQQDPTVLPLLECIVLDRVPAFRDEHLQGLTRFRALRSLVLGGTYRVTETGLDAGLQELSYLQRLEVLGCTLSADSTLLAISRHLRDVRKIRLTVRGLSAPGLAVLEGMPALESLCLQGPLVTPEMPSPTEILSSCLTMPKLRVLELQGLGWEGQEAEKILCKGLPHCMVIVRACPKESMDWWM
UniProt Q9NXE8: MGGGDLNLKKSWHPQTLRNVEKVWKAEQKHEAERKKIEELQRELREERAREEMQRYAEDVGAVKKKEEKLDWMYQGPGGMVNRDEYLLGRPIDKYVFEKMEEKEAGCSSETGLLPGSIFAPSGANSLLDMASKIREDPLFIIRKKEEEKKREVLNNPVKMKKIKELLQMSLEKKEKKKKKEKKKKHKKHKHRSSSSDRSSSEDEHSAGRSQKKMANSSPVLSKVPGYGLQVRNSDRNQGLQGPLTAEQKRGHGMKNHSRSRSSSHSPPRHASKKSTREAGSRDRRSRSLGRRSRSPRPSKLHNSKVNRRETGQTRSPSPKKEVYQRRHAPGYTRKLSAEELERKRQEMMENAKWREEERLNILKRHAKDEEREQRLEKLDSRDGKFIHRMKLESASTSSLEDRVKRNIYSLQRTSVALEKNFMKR
UniProt Q9NWK9: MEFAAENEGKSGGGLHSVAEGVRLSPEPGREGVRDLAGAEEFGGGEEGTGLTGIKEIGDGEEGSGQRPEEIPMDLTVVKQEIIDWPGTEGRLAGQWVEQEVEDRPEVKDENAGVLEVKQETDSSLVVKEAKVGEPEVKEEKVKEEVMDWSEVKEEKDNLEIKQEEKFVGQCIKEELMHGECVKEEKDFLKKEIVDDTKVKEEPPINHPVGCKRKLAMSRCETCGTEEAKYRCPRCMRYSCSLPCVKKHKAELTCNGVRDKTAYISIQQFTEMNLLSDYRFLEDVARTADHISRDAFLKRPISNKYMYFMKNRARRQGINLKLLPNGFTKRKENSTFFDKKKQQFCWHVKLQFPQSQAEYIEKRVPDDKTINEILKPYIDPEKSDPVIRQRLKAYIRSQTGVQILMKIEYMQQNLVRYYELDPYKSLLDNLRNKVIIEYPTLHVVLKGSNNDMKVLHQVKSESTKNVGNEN
UniProt Q9NS28: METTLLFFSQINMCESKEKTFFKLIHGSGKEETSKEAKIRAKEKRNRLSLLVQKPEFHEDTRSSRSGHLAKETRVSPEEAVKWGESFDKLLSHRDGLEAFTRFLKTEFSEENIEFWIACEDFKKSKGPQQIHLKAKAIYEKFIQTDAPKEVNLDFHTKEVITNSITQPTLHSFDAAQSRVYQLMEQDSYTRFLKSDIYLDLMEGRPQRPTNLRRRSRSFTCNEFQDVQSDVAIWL
UniProt Q9NXJ5: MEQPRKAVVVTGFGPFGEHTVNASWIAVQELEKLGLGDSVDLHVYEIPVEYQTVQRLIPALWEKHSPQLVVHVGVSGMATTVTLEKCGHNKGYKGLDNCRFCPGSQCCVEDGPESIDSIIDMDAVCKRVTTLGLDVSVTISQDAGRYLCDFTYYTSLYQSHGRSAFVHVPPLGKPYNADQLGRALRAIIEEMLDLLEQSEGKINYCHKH
UniProt Q9NUG6, whole entry: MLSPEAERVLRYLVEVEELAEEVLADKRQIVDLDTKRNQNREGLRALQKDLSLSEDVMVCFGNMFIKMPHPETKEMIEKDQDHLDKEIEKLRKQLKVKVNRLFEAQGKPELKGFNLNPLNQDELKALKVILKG

Compound: CN[C@@H]1C[C@H]2O[C@@](C)([C@@H]1OC)n1c3ccccc3c3c4c(c5c6ccccc6n2c5c31)C(=O)NC4 [staurosporine]
Assay: log2 fold change of tryptic peptide abundance, ligand vs vehicle (limited proteolysis) (log2 ratio); higher = more trypsin-susceptible (destabilized)
Conditions: ligand concentration: 20 uM; sample: K562 cleared lysate; digestion: 4 min, 22 C (HT-PELSA RT4min, Orbitrap Astral)

Row | Target | log2 fold change
1 | TBCCD1 (peptide sequence: IACNTHVAPR, peptide start residue: 296) (UniProt Q9NVR7) | -0.236
2 | INPP5E (peptide sequence: SSFSLLAPIR, peptide start residue: 255) (UniProt Q9NRR6) | -0.462
3 | RBM12 (peptide sequence: ATGEGFVEFRNEADYK, peptide start residue: 470) (UniProt Q9NTZ6) | -0.352
4 | SH2B1 (peptide sequence: AAQLVLTGGTGSHGVFLVR, peptide start residue: 537) (UniProt Q9NRF2) | -0.242
5 | PCMTD2 (peptide sequence: TGPSAWETKK, peptide start residue: 201) (UniProt Q9NV79) | -0.853
6 | DDIT4 (peptide sequence: TPTPDRPPR, peptide start residue: 23) (UniProt Q9NX09) | -0.181
7 | DDX4 (peptide sequence: YLVLDEADR, peptide start residue: 343) (UniProt Q9NQI0) | -0.0363
8 | HIF1AN (peptide sequence: RIEYPLK, peptide start residue: 305) (UniProt Q9NWT6) | 0.00818
9 | AASDHPPT (peptide sequence: AIGVGLGFELQR, peptide start residue: 186) (UniProt Q9NRN7) | -0.252
10 | UniProt Q9NW81 (peptide sequence: LGAAVAPEGNQK, peptide start residue: 25) | 0.052
11 | GPATCH2 (peptide sequence: GGFAETGDHSR, peptide start residue: 45) (UniProt Q9NW75) | -0.839
12 | RRN3 (peptide sequence: LPGDAAASSSAVKK, peptide start residue: 10) (UniProt Q9NYV6) | 0.27
13 | UniProt Q9NYW8 (peptide sequence: SQMEMKPFECSECGK, peptide start residue: 254) | 0.723
14 | DIAPH3 (peptide sequence: LAESMIQNLIK, peptide start residue: 749) (UniProt Q9NSV4) | 0.221
15 | PNO1 (peptide sequence: RPVFPPLCGDGLLSGKEETR, peptide start residue: 57) (UniProt Q9NRX1) | -0.148
16 | POT1 (peptide sequence: LQNTSLYDSK, peptide start residue: 413) (UniProt Q9NUX5) | -0.333
17 | TBC1D13 (peptide sequence: SGVTNMSSPHK, peptide start residue: 177) (UniProt Q9NVG8) | 0.253
18 | MBIP (peptide sequence: RISAFIER, peptide start residue: 162) (UniProt Q9NS73) | -0.78

Quoted from the listing:
Entry of UniProt Q9NW81 (peptide sequence: LGAAVAPEGNQK, peptide start residue: 25) under log2 fold change: 0.052
Entry of DIAPH3 (peptide sequence: LAESMIQNLIK, peptide start residue: 749) (UniProt Q9NSV4) under log2 fold change: 0.221

More records follow.

Row | Target | log2 fold change
19 | ZNF277 (peptide sequence: KLDNLQCLYCEK, peptide start residue: 220) (UniProt Q9NRM2) | -0.256
20 | FAM53C (peptide sequence: MNQKPYSGGLCLQETAR, peptide start residue: 305) (UniProt Q9NYF3) | -0.25
21 | TMEM106B (peptide sequence: NGLVNSEVHNEDGR, peptide start residue: 28) (UniProt Q9NUM4) | -0.114
22 | UniProt Q9NUP7 (peptide sequence: QDNQNDDSEEHDDGGYR, peptide start residue: 390) | 0.235
23 | FBXL12 (peptide sequence: HVDLTLYTMRPK, peptide start residue: 46) (UniProt Q9NXK8) | 0.736
24 | C1orf112 (peptide sequence: TGFVDETEAAKVER, peptide start residue: 749) (UniProt Q9NSG2) | -0.133
25 | UniProt Q9NXE8 (peptide sequence: YAEDVGAVK, peptide start residue: 56) | 0.281
26 | ZNHIT6 (peptide sequence: NKVIIEYPTLHVVLK, peptide start residue: 432) (UniProt Q9NWK9) | -0.54
27 | STARD7 (peptide sequence: QFFNVQLDTEYRK, peptide start residue: 178) (UniProt Q9NQZ5) | -0.192
28 | THG1L (peptide sequence: LPTEMEGKK, peptide start residue: 256) (UniProt Q9NWX6) | -0.115
29 | ALKBH4 (peptide sequence: RVCVTFR, peptide start residue: 265) (UniProt Q9NXW9) | 0.611
30 | UniProt Q9NT68 (peptide sequence: KPSKYCSWK, peptide start residue: 366) | 0.0689
31 | PAK1IP1 (peptide sequence: EPGDTVHKEEKR, peptide start residue: 333) (UniProt Q9NWT1) | -0.13
32 | RGS18 (peptide sequence: ETRVSPEEAVK, peptide start residue: 72) (UniProt Q9NS28) | 0.0557
33 | ERAP1 (peptide sequence: GMDGFCSR, peptide start residue: 493) (UniProt Q9NZ08) | 0.0424
34 | PGPEP1 (peptide sequence: HSPQLVVHVGVSGMATTVTLEK, peptide start residue: 65) (UniProt Q9NXJ5) | -0.198
35 | PDRG1 (peptide sequence: YLVEVEELAEEVLADKR, peptide start residue: 12) (UniProt Q9NUG6) | 0.485
36 | DNAJC11 (peptide sequence: HSVLGAAVSVGVPQGVSLK, peptide start residue: 346) (UniProt Q9NVH1) | -0.488
